Values from PubChem BioAssay AID686938 (Drosophila RNAi Screening Center, 2013)
Purpose: 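Fly genes required for calcium entry once internal stores are emptied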 (primary screen). System: Drosophila S2R+ cells. Knock-down reagent: long dsRNA against Drosophila genes, about 0.25 µg dsRNA per well, roughly 10,000 cells. Duration: 5 days of knock-down before the calcium assay. Challenge: thapsigargin (SERCA pump blocker) to empty calcium stores; entry signal taken 4 min after adding it. Read-out: 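Duplicate raw fluo-4 intensities per well from a plate reader, at rest and four minutes after thapsigargin emptied calcium stores; entry-to-rest ratio filled for only some wells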. Direction: calcium entry signal: higher = stronger calcium signal after store depletion; resting calcium signal: higher = higher resting calcium signal. Rule for the call: 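Hit if the duplicate-averaged plate z-score for entry over resting signal is under −3; wells with weak total dye signal (Fmax z < −2) or more than 5 off-targets removed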. Calls: active = strongly reduced calcium entry; inactive = no strong reduction.
The deposit covers about 23,000 reagents; shown is an unselected part of those that have a named target and a result. In the full data, 75 (0.33%) were called active. 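Raw plate signals without normalisation; calls rest on plate z-scores that were not deposited; ratio present for only 364 wells.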 The numbers tell different reagents against one gene apart. Not given: the dose of the treatment.

target,dsRNA no.,"calcium entry signal, replicate 1 (fluorescence units)","calcium entry signal, replicate 2 (fluorescence units)","resting calcium signal, replicate 1 (fluorescence units)","resting calcium signal, replicate 2 (fluorescence units)",call
Taf11,1,3.21e7,4.88e7,1.72e7,2.15e7,inactive
CG9503,1,4.49e7,3.10e7,2.13e7,1.45e7,inactive
CG9503,2,2.85e7,3.22e7,1.53e7,1.54e7,inactive
CG7115,1,3.16e7,4.30e7,1.43e7,1.80e7,inactive
CG7544,1,3.66e7,2.15e7,1.91e7,1.14e7,inactive
CG4995,1,5.04e7,,2.56e7,,inactive
CG18281,1,3.83e7,4.58e7,1.92e7,3.07e7,inactive
CG12773,1,3.79e7,4.13e7,1.80e7,2.04e7,inactive
CG16741,1,3.45e7,5.02e7,1.59e7,2.44e7,inactive
a5,1,3.68e7,3.75e7,1.74e7,1.59e7,inactive
CG8036,1,4.06e7,2.76e7,2.03e7,1.34e7,inactive
Gr36b,1,3.27e7,2.77e7,1.77e7,1.42e7,inactive
CG12395,1,3.67e7,2.70e7,2.13e7,1.34e7,inactive
RpS2,1,8.48e6,,7.00e6,,inactive
CG9222,1,4.22e7,3.84e7,1.91e7,1.74e7,inactive
eIF3f1,1,1.59e7,2.41e7,1.12e7,1.58e7,inactive
CG6125,1,2.01e7,3.19e7,1.05e7,5.15e7,inactive
Mdr49,1,3.99e7,3.64e7,1.85e7,1.83e7,inactive
Hex-t2,1,4.18e7,3.80e7,1.97e7,1.98e7,inactive
CG10345,1,4.11e7,3.06e7,2.01e7,1.51e7,inactive

Look-ups from the list:
For “call”, CG9222 is entered as inactive
CG7115, resting calcium signal, replicate 2 (fluorescence units) = 1.80e7
Under “calcium entry signal, replicate 1 (fluorescence units)”, CG18281 has 3.83e7
Value for CG10345 in “calcium entry signal, replicate 2 (fluorescence units)”: 3.06e7

Continued:
target,dsRNA no.,"calcium entry signal, replicate 1 (fluorescence units)","calcium entry signal, replicate 2 (fluorescence units)","resting calcium signal, replicate 1 (fluorescence units)","resting calcium signal, replicate 2 (fluorescence units)",call
Wdr59,1,5.77e7,,2.56e7,,inactive
lin-28,1,3.32e7,3.89e7,1.76e7,1.63e7,inactive
ND-B14.7,1,4.29e7,5.86e7,2.23e7,2.28e7,inactive
Cpr31A,1,2.50e7,3.64e7,1.25e7,1.70e7,inactive
CG43138,1,2.74e7,3.61e7,1.19e7,1.45e7,inactive
CG14695,1,3.48e7,4.05e7,1.81e7,2.10e7,inactive
CG5376,1,3.21e7,3.95e7,6.45e7,1.75e7,inactive
MED20,1,2.57e7,3.50e7,1.28e7,1.61e7,inactive
Shaw,1,4.20e7,3.51e7,2.08e7,1.66e7,inactive
Shaw,2,4.20e7,5.85e7,2.01e7,2.43e7,inactive
Shaw,3,4.13e7,3.30e7,2.15e7,1.49e7,inactive
CG2006,1,4.22e7,3.35e7,1.93e7,1.58e7,inactive
Nplp2,1,2.76e7,4.70e7,1.52e7,2.04e7,inactive
CG43057,1,3.43e7,4.09e7,1.56e7,1.71e7,inactive
CG7737,1,2.39e7,2.59e7,1.13e7,1.16e7,inactive
CG14990,1,3.55e7,4.13e7,1.89e7,1.83e7,inactive
hook,1,5.43e7,,2.72e7,,inactive
CG17660,1,4.85e7,,2.87e7,,inactive
CG33263,1,3.45e7,3.86e7,1.83e7,1.64e7,inactive
mRpL44,1,2.62e7,3.42e7,1.07e7,1.47e7,inactive
